Data taken from PubChem BioAssay AID493014 (National Center for Advancing Translational Sciences (NCATS), 2011).
This is one part of the list. Shown are side measurements of this screen, not its main read-out; they come without a call. Most of these compounds were active or inconclusive in the main read-out, so they are no random draw. Potencies come from curve fits of mixed quality, noted in brackets.

Assay: qHTS Assay to Find Inhibitors of Chronic Active B-Cell Receptor Signaling
Settings: ABC-DLBCL IkBa-CBG/CBR reporter, luminescence ratio (green luciferase fused to IkBa over red control in TMD8 lymphoma cells), 4 h
In short: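 TMD8 human ABC-DLBCL cells with doxycycline-inducible IκBα–green luciferase fusion and unfused red luciferase, in 0.5% FBS medium; compounds up to 46 uM, 4 h at 37C. Green/red luminescence ratio, filter-overlap corrected, fitted to concentration-response curves.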

[1] = measured here: IkBa-CBG green luminescence
[2] = measured here: CBR red luminescence, cell number

| SMILES | AC50 [1] | AC50 [2] |
| --- | --- | --- |
| N#C/C(=C\c1ccc(Cl)cc1)c1nc2ccccc2o1 | 29.1 µM [falling, partial curve, poor fit] |  |
| Cc1ccc(NC(=O)C(=O)NC2CCCCC2)cc1 |  | 0.0259 µM [falling, full curve] |
| O=C(N/N=C/c1ccncc1)c1nc(-c2ccccc2)n2c1CCCCC2 |  | 1.41 µM [rising, partial curve, poor fit] |
| COC(=O)c1ccc(CSc2nc3c(c(=O)n2-c2ccc(C)cc2)SCC3)o1 |  | 3.26 µM [rising, full curve] |
| CCOC(=O)C1=NOC2C(=O)N(c3ccc(Cl)cc3Cl)C(=O)C12 (stereo not drawn) |  | 14.1 µM [falling, single point] |
| NC(=O)C1(N2CCCCC2)CCN(C(=O)Nc2ccccc2C(F)(F)F)CC1 |  | 6.51 µM [falling, partial curve, poor fit] |
| Cc1cc(C)cc(NC(=O)Cn2nnc(-c3ccccc3F)n2)c1 |  | 7.08 µM [rising, partial curve] |
| COc1cccc(NC(=O)Nc2ccc(Cc3ccncc3)cc2)c1 |  | 29.1 µM [falling, single point] |
| C/C(=N\NS(=O)(=O)c1ccc(Cl)cc1)c1ccc(NC(=O)c2ccco2)cc1 |  | 20.6 µM [falling, single point] |
| CSc1ncccc1C(=O)OCc1ccc([N+](=O)[O-])cc1 |  | 14.1 µM [rising, single point] |
| CCCCN1Cc2cc(C(=O)c3cc(F)ccc3O)cnc2NC1=O |  | 35.5 µM [falling, single point] |
| COc1ccc(NC(=O)Nc2cccc3ccccc23)cc1OC |  | 0.355 µM [falling, full curve] |
| Cc1ccc(CNC(=O)c2cn(C3CCCCC3)c(=O)c3c2c2ccccc2n3C)o1 |  | 2.59 µM [rising, single point] |
| O=C1C(Cl)=C(N2CCC(C(=O)O)CC2)C(=O)c2ccccc21 |  | 8.91 µM [falling, partial curve, poor fit] |
| COc1cccc(-c2cc(N3C(=O)Nc4ccccc4N3O)n[nH]2)c1 |  | 18.4 µM [falling, single point] |
| CC[N+](C)(C)CCN(Cc1ccc(Cl)cc1)c1ccccn1 |  | 29.1 µM [falling, single point] |
| COc1cc(/C=N/N2C(=O)c3ccccc3NC2(C)c2cccc([N+](=O)[O-])c2)cc(Br)c1O (stereo not drawn) |  | 35.5 µM [falling, single point] |
| CCn1c(=O)c(C(=O)CN2c3ccccc3CC2C)c(N)n(Cc2ccccc2)c1=O (stereo not drawn) |  | 29.1 µM [falling, single point] |
| COc1ccccc1NS(=O)(=O)c1ccc(-c2cnc(C3CC3)o2)cc1 | 11.2 µM [falling, partial curve] | 7.94 µM [rising, partial curve, poor fit] |
| O=C1Nc2ccccc2/C1=C\C(=O)c1ccccc1 |  | 11.2 µM [falling, partial curve, poor fit] |
| CCOc1ccccc1OCC(=O)Nc1nnc(C)s1 |  | 23.1 µM [falling, single point] |
| CCn1c(C)cc(/C=C2\SC(=O)N(CC(=O)Nc3ccc(C)c(C)c3)C2=O)c1C |  | 0.0891 µM [rising, full curve, poor fit] |

Structural class, the compounds so far with sulfur

| SMILES | AC50 [1] | AC50 [2] |
| --- | --- | --- |
| COC(=O)c1ccc(CSc2nc3c(c(=O)n2-c2ccc(C)cc2)SCC3)o1 |  | 3.26 µM [rising, full curve] |
| C/C(=N\NS(=O)(=O)c1ccc(Cl)cc1)c1ccc(NC(=O)c2ccco2)cc1 |  | 20.6 µM [falling, single point] |
| CSc1ncccc1C(=O)OCc1ccc([N+](=O)[O-])cc1 |  | 14.1 µM [rising, single point] |
| COc1ccccc1NS(=O)(=O)c1ccc(-c2cnc(C3CC3)o2)cc1 | 11.2 µM [falling, partial curve] | 7.94 µM [rising, partial curve, poor fit] |
| CCOc1ccccc1OCC(=O)Nc1nnc(C)s1 |  | 23.1 µM [falling, single point] |
| CCn1c(C)cc(/C=C2\SC(=O)N(CC(=O)Nc3ccc(C)c(C)c3)C2=O)c1C |  | 0.0891 µM [rising, full curve, poor fit] |

Taken from above.
COC(=O)c1ccc(CSc2nc3c(c(=O)n2-c2ccc(C)cc2)SCC3)o1 – AC50 [2]: 3.26 µM [rising, full curve]
N#C/C(=C\c1ccc(Cl)cc1)c1nc2ccccc2o1 – AC50 [1]: 29.1 µM [falling, partial curve, poor fit]

(more compounds)

| SMILES | AC50 [1] | AC50 [2] |
| --- | --- | --- |
| CC(=O)c1nn(-c2cccc(C(F)(F)F)c2)c(=O)[nH]c1=O |  | 0.501 µM [rising, partial curve, poor fit] |
| COc1ccc2c(c1)cc1n2CCN=C1NCCO |  | 25.9 µM [rising, single point] |
| CN1C(C(=O)NCc2ccco2)CC2Cn3c(nc4cc5ccccc5cc43)C21 (stereo not drawn) |  | 3.98 µM [rising, full curve, poor fit] |
| NC(=O)c1cc([N+](=O)[O-])ccc1NCc1ccc(N)cc1 |  | 20.6 µM [falling, single point] |
| O=C(CSc1nc2ccccc2o1)N/N=C/c1ccc(C(=O)O)cc1 |  | 17.8 µM [falling, single point] |
| Cc1ccc(C)c(N2CCN(C(=O)CCCn3c(=O)c4cccn4c4cccnc43)CC2)c1 |  | 22.4 µM [falling, single point] |
| Clc1ss/c(=N\c2ccccn2)c1Cl |  | 29.1 µM [rising, single point] |
| CCCOc1nc2c(c(=O)n(C)c(=O)n2C)n1C |  | 7.08 µM [falling, full curve, poor fit] |
| COc1ccc(-n2nc([N+](=O)[O-])c(=NCCc3ccccc3)n2O)cc1 |  | 16.4 µM [rising, partial curve, poor fit] |
| CC(C)(C)NC(=O)C(c1ccncc1)N(Cc1ccc(F)cc1)C(=O)c1ccc(-c2ccccc2)[nH]1 (stereo not drawn) | 25.1 µM [rising, partial curve, poor fit] | 35.5 µM [falling, single point] |
| Cc1ccc(NC(=S)NC(=O)c2ccc(F)cc2)cc1S(=O)(=O)Nc1ccccc1Cl |  | 3.66 µM [falling, partial curve, poor fit] |
| Cc1cc(C(=O)CSc2nnc(-c3ccccc3)n2C)c(C)n1C |  | 1.03 µM [rising, partial curve, poor fit] |
| COc1cccc(/C=N/NC(=O)c2cc3c(OC)cccc3[nH]2)c1OC |  | 2.31 µM [falling, partial curve] |
| Cc1ccc(NC(=O)CSc2nncn2-c2ccccn2)cc1Cl |  | 2.24 µM [falling, partial curve] |
| Cc1c(C(=O)Nc2nccs2)oc2c(Cl)cccc12 |  | 0.326 µM [falling, full curve] |
| O=C(Nc1cccnc1)c1cc(-c2cccc(Cl)c2)on1 |  | 8.91 µM [falling, partial curve] |
| O=C(/C=C/c1ccco1)N/C(=C\c1ccccc1)C(=O)NCCc1nc2ccccc2[nH]1 |  | 8.2 µM [falling, partial curve] |
| COc1ccc(N/C(C)=C2/C(=O)C(=O)N(CCO)C2c2ccc([N+](=O)[O-])cc2)cc1 (stereo not drawn) | 2.91 µM [rising, partial curve, poor fit] | 5.8 µM [falling, single point] |
| O=C(NCCc1ccccc1F)c1ccc2c(c1)OCCO2 |  | 1.41 µM [falling, full curve] |
| CN=C(Nc1ccccc1OC)SC1CC(=O)N(c2ccc(C(=O)OC)cc2)C1=O (stereo not drawn) |  | 0.58 µM [rising, full curve, poor fit] |
| CCOC(=O)C1(CCOc2ccccc2)CCN(Cc2nccn2CC)CC1 |  | 0.891 µM [rising, full curve, poor fit] |
| CC(=O)c1cc(CN2CCC(N3CCC(C(=O)N4CCCC4)CC3)CC2)cs1 |  | 6.31 µM [falling, partial curve, poor fit] |

| SMILES | AC50 [1] | AC50 [2] |
| --- | --- | --- |
| N#C/C(=C\C=C\c1ccccc1)C(=O)NCc1cccnc1 |  | 6.31 µM [falling, partial curve, poor fit] |
| COc1cccc(CNC(=O)CN(c2ccc(C(C)C)cc2)S(=O)(=O)c2c(C)noc2C)c1 |  | 14.1 µM [falling, partial curve, poor fit] |
| CC(C)(C)NC(=O)COC(=O)c1ccc(Cl)cc1O |  | 6.31 µM [rising, single point] |
| Oc1ccc(N=Nc2ccc3ccccc3c2)cc1 |  | 35.5 µM [falling, single point] |
| O=C(NCCC1=CCCCC1)C1COc2ccccc2O1 (stereo not drawn) |  | 6.31 µM [rising, full curve] |
| NC(=O)C1CC(=O)N(c2ccc(OCc3c(F)cccc3Cl)cc2)C1 (stereo not drawn) |  | 0.224 µM [falling, full curve] |
| CC(C)[C@H](NC(=O)c1ccccc1)C(=O)OCC(=O)c1c(N)n(C)c(=O)n(C)c1=O |  | 2.91 µM [rising, partial curve] |
| O=S1(=O)NC2c3ccccc3CC2O1 (stereo not drawn) |  | 35.5 µM [falling, single point] |
| O=C(NCCN1CCOCC1)c1cc(-c2ccc(F)cc2)nc2ccccc12 |  | 25.9 µM [rising, partial curve] |
| O=C(NNC(=O)c1ccccc1O)c1cccc(Br)c1 |  | 2.51 µM [falling, partial curve] |
| CCOC(=O)N1CCN(C(=O)CSCC(=O)Nc2nc(-c3ccccc3)cs2)CC1 | 14.6 µM [rising, partial curve, poor fit] | 29.1 µM [falling, single point] |
| Cc1ccc(C)c2sc(N3CCN(C(=O)C(C)(C)C)CC3)nc12 |  | 3.16 µM [rising, full curve] |
| CCc1nnc(NC(=O)c2ccc(NS(=O)(=O)c3ccccc3)cc2)s1 |  | 1.64 µM [falling, full curve, poor fit] |
| CN=C(C)c1c(O)c2ccccc2oc1=O |  | 16.4 µM [falling, single point] |
| CCN1C(=O)/C(=C/C=C2\C=CN(CC)c3ccccc32)SC1=S |  | 13 µM [rising, partial curve, poor fit] |
| Cc1cn(S(=O)(=O)c2ccc(Br)cc2)cn1 |  | 23.1 µM [rising, single point] |
| OCc1ncccc1O |  | 0.631 µM [falling, full curve, poor fit] |
| COc1ccc(-n2nnnc2SCC(=O)c2cc3ccccc3o2)cc1 |  | 8.91 µM [falling, partial curve, poor fit] |
| O=C(Nc1cccc(-c2cn3ccccc3n2)c1)c1cc2ccccc2oc1=O |  | 11.6 µM [falling, partial curve, poor fit] |
| COc1ccccc1CC(=O)Nc1cccc(C(=O)NN2C(=O)c3ccccc3C2=O)c1 |  | 14.6 µM [falling, partial curve] |
